# Test: Glycated, oxidized and nitrated free adducts and amino acids in plasma ultrafiltrate by LC-MS/MS
# Set-up: species or system human
# Conditions: children with ASD with respect to healthy controls
row,Compound,"plasma conventional amino acid metabolome, change"
1,"N=C(N)NCCC[C@H](N)C(=O)O [arg, arginine]",increases
2,"N[C@@H](CCC(=O)O)C(=O)O [glu, glutamate]",increases
3,"C[C@@H](O)[C@H](N)C(=O)O [thr, threonine]",increases
4,"N[C@@H](Cc1c[nH]c2ccccc12)C(=O)O [trp, tryptophan]",decrease
